# Experimental data as given in the supplement of paper PMC10032668.
# Protein sequences, listed by entry. Tags and fused reporters are not part of them.
# ATP6V0D1, P61421, UniProt P61421, whole entry: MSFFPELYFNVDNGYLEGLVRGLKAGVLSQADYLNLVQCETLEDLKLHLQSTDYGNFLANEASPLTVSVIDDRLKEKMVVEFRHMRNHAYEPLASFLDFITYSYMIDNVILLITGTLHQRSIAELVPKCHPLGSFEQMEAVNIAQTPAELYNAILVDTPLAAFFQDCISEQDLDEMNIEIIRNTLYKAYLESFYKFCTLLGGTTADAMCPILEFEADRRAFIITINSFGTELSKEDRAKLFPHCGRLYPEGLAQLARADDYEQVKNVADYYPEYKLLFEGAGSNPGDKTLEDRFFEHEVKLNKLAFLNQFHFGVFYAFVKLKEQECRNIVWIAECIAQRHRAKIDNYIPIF
# DCTN5, Q9BTE1, UniProt Q9BTE1, whole entry: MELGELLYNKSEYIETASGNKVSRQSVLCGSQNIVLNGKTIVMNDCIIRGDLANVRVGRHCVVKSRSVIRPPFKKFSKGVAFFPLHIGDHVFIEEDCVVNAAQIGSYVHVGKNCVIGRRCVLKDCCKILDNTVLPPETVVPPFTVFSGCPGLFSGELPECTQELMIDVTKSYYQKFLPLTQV
# INTS7, Q9NVH2, UniProt Q9NVH2, whole entry: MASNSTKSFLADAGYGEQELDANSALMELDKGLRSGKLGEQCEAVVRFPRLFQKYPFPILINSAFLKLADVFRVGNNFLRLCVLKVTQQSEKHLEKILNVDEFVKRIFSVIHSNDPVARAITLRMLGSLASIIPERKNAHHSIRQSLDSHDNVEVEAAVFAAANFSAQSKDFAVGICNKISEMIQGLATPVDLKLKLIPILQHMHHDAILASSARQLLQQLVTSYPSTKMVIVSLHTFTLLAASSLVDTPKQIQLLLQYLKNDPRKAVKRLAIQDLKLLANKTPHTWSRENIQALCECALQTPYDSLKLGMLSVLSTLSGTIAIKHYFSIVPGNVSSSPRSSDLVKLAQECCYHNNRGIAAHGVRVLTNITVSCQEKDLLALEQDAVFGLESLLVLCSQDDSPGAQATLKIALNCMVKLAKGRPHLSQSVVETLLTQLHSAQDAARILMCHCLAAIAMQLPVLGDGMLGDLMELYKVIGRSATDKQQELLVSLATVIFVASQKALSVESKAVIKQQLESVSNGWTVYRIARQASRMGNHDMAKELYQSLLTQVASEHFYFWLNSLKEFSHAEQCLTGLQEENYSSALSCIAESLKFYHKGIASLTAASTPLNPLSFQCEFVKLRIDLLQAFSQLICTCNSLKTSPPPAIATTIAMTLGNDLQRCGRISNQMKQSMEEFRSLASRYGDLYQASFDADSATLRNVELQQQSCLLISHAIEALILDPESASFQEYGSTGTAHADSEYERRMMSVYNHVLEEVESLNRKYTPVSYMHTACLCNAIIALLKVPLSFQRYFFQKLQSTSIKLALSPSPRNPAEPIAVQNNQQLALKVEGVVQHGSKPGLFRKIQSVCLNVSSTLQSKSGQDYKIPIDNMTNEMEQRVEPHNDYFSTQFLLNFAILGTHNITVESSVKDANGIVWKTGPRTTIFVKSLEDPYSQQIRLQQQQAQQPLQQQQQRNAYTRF
# KHDRBS1, Q07666, UniProt Q07666, whole entry: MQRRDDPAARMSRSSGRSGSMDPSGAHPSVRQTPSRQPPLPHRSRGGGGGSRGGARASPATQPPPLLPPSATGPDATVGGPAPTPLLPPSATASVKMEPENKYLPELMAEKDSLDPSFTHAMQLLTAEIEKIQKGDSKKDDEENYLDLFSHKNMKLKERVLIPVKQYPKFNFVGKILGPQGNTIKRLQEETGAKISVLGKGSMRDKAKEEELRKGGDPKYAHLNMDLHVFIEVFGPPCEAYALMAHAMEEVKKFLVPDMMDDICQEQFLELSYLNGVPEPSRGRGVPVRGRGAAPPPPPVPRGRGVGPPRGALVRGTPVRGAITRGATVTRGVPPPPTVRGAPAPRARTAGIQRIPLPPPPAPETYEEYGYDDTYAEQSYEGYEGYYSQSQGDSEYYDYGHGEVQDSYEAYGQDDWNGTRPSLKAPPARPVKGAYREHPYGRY
# NDUFB7, P17568, UniProt P17568, whole entry: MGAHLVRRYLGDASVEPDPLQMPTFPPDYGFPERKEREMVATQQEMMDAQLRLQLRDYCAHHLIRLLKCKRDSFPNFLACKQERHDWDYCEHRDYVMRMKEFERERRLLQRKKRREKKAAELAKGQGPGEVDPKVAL
# PIN1, Q13526, UniProt Q13526, whole entry: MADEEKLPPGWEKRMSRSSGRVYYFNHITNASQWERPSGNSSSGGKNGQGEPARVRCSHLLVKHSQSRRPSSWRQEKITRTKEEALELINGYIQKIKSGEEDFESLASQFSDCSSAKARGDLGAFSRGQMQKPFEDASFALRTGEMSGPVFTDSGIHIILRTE
# This is one part of the list. The list holds hits alone, and they repeat only in part.
# Assays:
# Assay in all cases: PRISMA enrichment of interactor (LFQ) in peptide spot vs all other peptide spots (log2 fold change); higher = stronger / more specific binding of the interactor to the peptide
# AP2B1, P63010 = target: AP2B1, P63010
# Protocol: (§1)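 PRISMA: 15-aa overlapping tiles (offset 8 aa) of 60 microproteins, plus SOS1/GLUT1 control peptides, were spot-synthesized on cellulose membranes in triplicate. Membranes were incubated with benzonase-treated HEK293T lysate, and bound proteins were identified by LC-MS/MS with LFQ. Enrichment is the log2 fold change of each protein in one spot versus all other spots. Only interactors passing the significance cutoff are listed.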
# AP2M1, Q96CW1 = target: AP2M1, Q96CW1
# Protocol: as §1
# ATP6V0D1, P61421 = target: ATP6V0D1, P61421
# Protocol: as §1
# BCKDK, O14874 = target: BCKDK, O14874
# Protocol: as §1
# DCTN5, Q9BTE1 = target: DCTN5, Q9BTE1
# Protocol: as §1
# EIF6, P56537 = target: EIF6, P56537
# Protocol: as §1
# EWSR1, Q01844 = target: EWSR1, Q01844
# Protocol: as §1
# FAM98B, Q52LJ0 = target: FAM98B, Q52LJ0
# Protocol: as §1
# FUS, P35637 = target: FUS, P35637
# Protocol: as §1
# HERC5, Q9UII4 = target: HERC5, Q9UII4
# Protocol: as §1
# HSPA4, P34932 = target: HSPA4, P34932
# Protocol: as §1
# INTS7, Q9NVH2 = target: INTS7, Q9NVH2
# Protocol: as §1
# MRTO4, Q9UKD2 = target: MRTO4, Q9UKD2
# Protocol: as §1
# PDP1, Q9P0J1 = target: PDP1, Q9P0J1
# Protocol: as §1
# [1] = substrate: PPIF, P30405
# Protocol: as §1
# RRS1, Q15050 = target: RRS1, Q15050
# Protocol: as §1
# SFPQ, P23246 = target: SFPQ, P23246
# Protocol: as §1
# STRAP, Q9Y3F4 = target: STRAP, Q9Y3F4
# Protocol: as §1
# TIAL1, Q01085 = target: TIAL1, Q01085
# Protocol: as §1
# CKMT1A, P12532 = target: CKMT1A, P12532
# Protocol: as §1
# EMG1, Q92979 = target: EMG1, Q92979
# Protocol: as §1
# FAM83D, Q9H4H8 = target: FAM83D, Q9H4H8
# Protocol: as §1
# FAM98A, Q8NCA5 = target: FAM98A, Q8NCA5
# Protocol: as §1
# GABARAPL2, P60520 = target: GABARAPL2, P60520
# Protocol: as §1
# HNRNPA2B1, P22626 = target: HNRNPA2B1, P22626
# Protocol: as §1
# IBA57, Q5T440 = target: IBA57, Q5T440
# Protocol: as §1
# KHDRBS1, Q07666 = target: KHDRBS1, Q07666
# Protocol: as §1
# MRPL15, Q9P015 = target: MRPL15, Q9P015
# Protocol: as §1
# NDUFB7, P17568 = target: NDUFB7, P17568
# Protocol: as §1
# NECAP2, Q9NVZ3 = target: NECAP2, Q9NVZ3
# Protocol: as §1
# [2] = substrate: NONO, Q15233
# Protocol: as §1
# NUDT16L1, Q9BRJ7 = target: NUDT16L1, Q9BRJ7
# Protocol: as §1
# PIN1, Q13526 = target: PIN1, Q13526
# Protocol: as §1
# RBMX, P38159 = target: RBMX, P38159
# Protocol: as §1
# STAG2, Q8N3U4 = target: STAG2, Q8N3U4
# Protocol: as §1
# hCG_1984214 = target: hCG_1984214
# Protocol: as §1
binder,measurement,setting,value
TVRTCDRFWQTEPAL,PRISMA enrichment of interactor (log2),"AP2B1, P63010",5.34
same,PRISMA enrichment of interactor (log2),"AP2M1, Q96CW1",4.85
same,PRISMA enrichment of interactor (log2),"ATP6V0D1, P61421",7.2
same,PRISMA enrichment of interactor (log2),"BCKDK, O14874",4.68
same,PRISMA enrichment of interactor (log2),"DCTN5, Q9BTE1",4.94
same,PRISMA enrichment of interactor (log2),"EIF6, P56537",4.45
same,PRISMA enrichment of interactor (log2),"EWSR1, Q01844",5.83
same,PRISMA enrichment of interactor (log2),"FAM98B, Q52LJ0",7.02
same,PRISMA enrichment of interactor (log2),"FUS, P35637",5.93
same,PRISMA enrichment of interactor (log2),"HERC5, Q9UII4",4.28
same,PRISMA enrichment of interactor (log2),"HSPA4, P34932",5.18
same,PRISMA enrichment of interactor (log2),"INTS7, Q9NVH2",5.26
same,PRISMA enrichment of interactor (log2),"MRTO4, Q9UKD2",4.7
same,PRISMA enrichment of interactor (log2),"PDP1, Q9P0J1",4.83
same,PRISMA enrichment of interactor (log2),[1],5.26
same,PRISMA enrichment of interactor (log2),"RRS1, Q15050",5.17
same,PRISMA enrichment of interactor (log2),"SFPQ, P23246",4.81
same,PRISMA enrichment of interactor (log2),"STRAP, Q9Y3F4",6.35
same,PRISMA enrichment of interactor (log2),"TIAL1, Q01085",5.36
CDRFWQTEPALLPPG,PRISMA enrichment of interactor (log2),"AP2B1, P63010",4.88
same,PRISMA enrichment of interactor (log2),"BCKDK, O14874",4.3
same,PRISMA enrichment of interactor (log2),"CKMT1A, P12532",4.04
same,PRISMA enrichment of interactor (log2),"EMG1, Q92979",5.61
same,PRISMA enrichment of interactor (log2),"EWSR1, Q01844",7.32
same,PRISMA enrichment of interactor (log2),"FAM83D, Q9H4H8",4.75
same,PRISMA enrichment of interactor (log2),"FAM98A, Q8NCA5",5.14
same,PRISMA enrichment of interactor (log2),"FUS, P35637",7
same,PRISMA enrichment of interactor (log2),"GABARAPL2, P60520",4.97
same,PRISMA enrichment of interactor (log2),"HNRNPA2B1, P22626",4.6
same,PRISMA enrichment of interactor (log2),"IBA57, Q5T440",4.28
same,PRISMA enrichment of interactor (log2),"KHDRBS1, Q07666",5.6
same,PRISMA enrichment of interactor (log2),"MRPL15, Q9P015",4.99
same,PRISMA enrichment of interactor (log2),"NDUFB7, P17568",6.27
same,PRISMA enrichment of interactor (log2),"NECAP2, Q9NVZ3",4.51
same,PRISMA enrichment of interactor (log2),[2],5.18
same,PRISMA enrichment of interactor (log2),"NUDT16L1, Q9BRJ7",4.57
same,PRISMA enrichment of interactor (log2),"PIN1, Q13526",4.45
same,PRISMA enrichment of interactor (log2),[1],5.42
same,PRISMA enrichment of interactor (log2),"RBMX, P38159",4.59
same,PRISMA enrichment of interactor (log2),"RRS1, Q15050",5.2
same,PRISMA enrichment of interactor (log2),"SFPQ, P23246",6.09
same,PRISMA enrichment of interactor (log2),"STAG2, Q8N3U4",6.53
same,PRISMA enrichment of interactor (log2),hCG_1984214,5.43

# Laid out differently: entries from further up
binder	measurement	setting	value
TVRTCDRFWQTEPAL	PRISMA enrichment of interactor (log2)	SFPQ, P23246	4.81
same	PRISMA enrichment of interactor (log2)	STRAP, Q9Y3F4	6.35
same	PRISMA enrichment of interactor (log2)	TIAL1, Q01085	5.36
